Reference: PubChem BioAssay AID1671195 (Yale University, 2021)

- Assay: 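Regulators of LDL receptor activity judged by labelled LDL uptake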 (primary screen)
- Cell system: human Huh7 hepatoma cells
- Knock-down reagent: siRNA pool against human genes, 18 nM
- Duration: about 2 to 2.5 days of knockdown, then 8 h LDL uptake
- Challenge: DiI-labelled LDL at 30 µg/ml for 8 h, in lipoprotein-deficient serum medium
- Detection: 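Fluorescent LDL signal imaged in cells, scaled to the plate median, robust z-score for each replicate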
- Scale: robust z-score: higher = more LDL uptake after knockdown
- Hit rule: 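Active when two or more replicates show a robust z-score above 2 or below -2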
This is an unselected part of about 22,000 deposited reagents. About 1,510 of all reagents (6.9%) count as active. 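Active includes knockdowns raising or lowering LDL uptake; positive z-scores mean more uptake, negative mean less.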

FCN3 (ficolin 3): robust z-score, replicate 1 = -0.62; robust z-score, replicate 2 = -0.783; robust z-score, replicate 3 = -1.02; outcome = inactive
CUBN (cubilin): robust z-score, replicate 1 = -1.77; robust z-score, replicate 2 = -2.25; robust z-score, replicate 3 = -2.16; outcome = active
ATP2A3: robust z-score, replicate 1 = 1.21; robust z-score, replicate 2 = 0.837; robust z-score, replicate 3 = 0.312; outcome = inactive
RFC5 (replication factor C subunit 5): robust z-score, replicate 1 = -0.499; robust z-score, replicate 2 = 0.359; robust z-score, replicate 3 = 0.155; outcome = inactive
ADAP1 (ArfGAP with dual PH domains 1): robust z-score, replicate 1 = 0.0854; robust z-score, replicate 2 = -0.0528; robust z-score, replicate 3 = -0.0754; outcome = inactive
LOC389636 (retired record): robust z-score, replicate 1 = 2.02; robust z-score, replicate 2 = 1.8; robust z-score, replicate 3 = 1.14; outcome = inactive
NLRP7 (NLR family pyrin domain containing 7): robust z-score, replicate 1 = 2.04; robust z-score, replicate 2 = 2.35; robust z-score, replicate 3 = 1.66; outcome = active
PRAF2 (PRA1 domain family member 2): robust z-score, replicate 1 = -0.0745; robust z-score, replicate 2 = -0.644; robust z-score, replicate 3 = -0.165; outcome = inactive
LOC440114 (retired record): robust z-score, replicate 1 = -1.06; robust z-score, replicate 2 = -0.792; robust z-score, replicate 3 = -1.39; outcome = inactive
ACSM1 (acyl-CoA synthetase medium chain family member 1): robust z-score, replicate 1 = 1.11; robust z-score, replicate 2 = -0.765; robust z-score, replicate 3 = -0.426; outcome = inactive
HEPACAM (hepatic and glial cell adhesion molecule): robust z-score, replicate 1 = -1.22; robust z-score, replicate 2 = -1.21; robust z-score, replicate 3 = -1.25; outcome = inactive
S100A5 (S100 calcium binding protein A5): robust z-score, replicate 1 = 0.0405; robust z-score, replicate 2 = -0.164; robust z-score, replicate 3 = -0.296; outcome = inactive
C1orf210 (chromosome 1 open reading frame 210): robust z-score, replicate 1 = -1.15; robust z-score, replicate 2 = -0.909; robust z-score, replicate 3 = -1.24; outcome = inactive
EAF1 (ELL associated factor 1): robust z-score, replicate 1 = -0.78; robust z-score, replicate 2 = -0.639; robust z-score, replicate 3 = -0.901; outcome = inactive
DNASE1L1 (deoxyribonuclease 1 like 1): robust z-score, replicate 1 = 0.53; robust z-score, replicate 2 = 0.183; robust z-score, replicate 3 = 0.735; outcome = inactive
ATP8A2 (ATPase phospholipid transporting 8A2): robust z-score, replicate 1 = 0.0238; robust z-score, replicate 2 = -0.139; robust z-score, replicate 3 = -0.123; outcome = inactive
L3MBTL1 (L3MBTL histone methyl-lysine binding protein 1): robust z-score, replicate 1 = -0.477; robust z-score, replicate 2 = -1.2; robust z-score, replicate 3 = -0.203; outcome = inactive
PNMA1 (PNMA family member 1): robust z-score, replicate 1 = -0.988; robust z-score, replicate 2 = 0.277; robust z-score, replicate 3 = -0.37; outcome = inactive
MAGEA5P (MAGE family member A5, pseudogene): robust z-score, replicate 1 = -1.05; robust z-score, replicate 2 = 0.128; robust z-score, replicate 3 = -0.671; outcome = inactive
RPL23A (ribosomal protein L23a): robust z-score, replicate 1 = -0.54; robust z-score, replicate 2 = -0.829; robust z-score, replicate 3 = -0.33; outcome = inactive
DPM3 (dolichyl-phosphate mannosyltransferase subunit 3, regulatory): robust z-score, replicate 1 = -1.27; robust z-score, replicate 2 = -1.99; robust z-score, replicate 3 = -1.22; outcome = inactive
LOC441722 (U2 small nuclear RNA auxiliary factor 1-like 4 pseudogene): robust z-score, replicate 1 = -2.5; robust z-score, replicate 2 = -2.91; robust z-score, replicate 3 = -2.55; outcome = active
KRT2 (keratin 2): robust z-score, replicate 1 = 1.62; robust z-score, replicate 2 = 3.22; robust z-score, replicate 3 = 1.12; outcome = inactive
CELF4 (CUGBP Elav-like family member 4): robust z-score, replicate 1 = 1.65; robust z-score, replicate 2 = 1.08; robust z-score, replicate 3 = 0.432; outcome = inactive
LINC00482 (long independently transcribed non-coding RNA 482): robust z-score, replicate 1 = -0.712; robust z-score, replicate 2 = -0.825; robust z-score, replicate 3 = -1.03; outcome = inactive
SERPINA9 (serpin family A member 9): robust z-score, replicate 1 = 0.691; robust z-score, replicate 2 = -0.3; robust z-score, replicate 3 = 0.136; outcome = inactive
SFRP5 (secreted frizzled related protein 5): robust z-score, replicate 1 = 0.366; robust z-score, replicate 2 = 0.376; robust z-score, replicate 3 = -1.39; outcome = inactive
LOC388528 (retired record): robust z-score, replicate 1 = -1.2; robust z-score, replicate 2 = -1.21; robust z-score, replicate 3 = -1.08; outcome = inactive
WFS1 (wolframin ER transmembrane glycoprotein): robust z-score, replicate 1 = -0.478; robust z-score, replicate 2 = -1.8; robust z-score, replicate 3 = -0.469; outcome = inactive
HTATSF1P2 (HIV-1 Tat specific factor 1 pseudogene 2): robust z-score, replicate 1 = -0.606; robust z-score, replicate 2 = -1.38; robust z-score, replicate 3 = -0.842; outcome = inactive

Records listed so far whose gene name starts with P or p:
PRAF2 (PRA1 domain family member 2): robust z-score, replicate 1 = -0.0745; robust z-score, replicate 2 = -0.644; robust z-score, replicate 3 = -0.165; outcome = inactive
PNMA1 (PNMA family member 1): robust z-score, replicate 1 = -0.988; robust z-score, replicate 2 = 0.277; robust z-score, replicate 3 = -0.37; outcome = inactive
